In patent publication US5612453A, “Selected peptides of the group-specific antigen (gag) of human immunodeficiency virus (HIV), the preparation and use thereof” (Chiron Behring GmbH & Co., priority 1990, dated 1997):
Not every detail of the peptide structures is certain; ends, links or a residue may be inferred.

Tests used:
Format in all cases: cell-based
[1] = tested on: HIV-1 virus strain HTLV-IIIB; assay: Inhibition of HIV-1 synthesis: infectious virus / reverse transcriptase activity in detector cell culture supernatant
HIV-2 strain ROD = assay: Inhibition of HIV-2 synthesis: reverse transcriptase activity in detector cell culture supernatant (Experiment 3)
[2] = tested on: HIV-1 virus strain HTLV-IIIB; assay: p24 detection by Western blot in HIV-infected cells after gag peptide treatment; conditions: two weeks after infection, Western blot with anti-p24 MAbs

SMILES: CC[C@H](C)[C@H](NC(=O)[C@@H](NC(=O)[C@H](CCCCN)NC(=O)[C@H](CS)NC(=O)[C@H](CC(=O)O)NC(=O)[C@@H]1CCCN1C(=O)[C@H](CC(N)=O)NC(=O)[C@H](C)N)[C@@H](C)O)C(=O)N[C@@H](CC(C)C)C(=O)N[C@@H](CCCCN)C(=O)N[C@@H](C)C(=O)N[C@@H](CC(C)C)C(=O)NCC(=O)N1CCC[C@H]1C(=O)N[C@@H](C)C(=O)N[C@@H](C)C(=O)N[C@H](C(=O)N[C@@H](CC(C)C)C(=O)N[C@@H](CCC(=O)O)C(=O)N[C@@H](CCC(=O)O)C(=O)N[C@@H](CCSC)C(=O)N[C@@H](CCSC)C(=O)N[C@H](C(=O)N[C@@H](C)C(N)=O)[C@@H](C)O)[C@@H](C)O [Peptide 28]
- inhibitory effect on HIV-1 synthesis (reverse transcriptase activity of detector culture supernatant) ([1]; Experiment 3 (FIG. 3), 100 TCID50 HIV-1, jurkat cells, detector cultures incubated two weeks): strong inhibitory effect
- inhibitory effect on HIV-1 synthesis ([1]; Experiments 1 and 2, jurkat cells, 1000 or 100 TCID50 HTLV-IIIB, peptide 200 or 40 μg/ml): exerted an inhibitory effect on HIV-1 synthesis
- inhibition of HIV-2 synthesis (reverse transcriptase activity of detector culture supernatant) (HIV-2 strain ROD; Experiment 3 (FIG. 3), 100 TCID50 HIV-2, H9 cells): very clearly evident
- inhibition of HIV-2 virus synthesis at 200 μg/ml (HIV-2 strain ROD; Experiment 3, H9 cells, 100 TCID50 HIV-2, only at the 200 μg/ml dose): complete inhibition
- p24 Detection [2]: (+)
